# Some of the results follow.
# B1: SrpA (Streptococcus sanguis) (protein)
# chain: SSKSESTVNSQSASSETNRSSTNNGSTSSSSETARVRKRRATDTTPPTITVPSDIIAYRGEEFEFYFEITDDSGQVKNIELSTFGKPLGLNWLEYSEDNFNVPGNATSDNPLRVRVHGTVPLNEPIPADKNRAQFTRTIRAWDAAGNVSSNITFVIKYRAQTDKYNPADPTITYVDRLSSLSPSEKNAVEAAVRAANPQIPAAARITVSANGTVTITYPDSSTDTITANRVVKDLASSRSALT
# Tests used:
# Test in all cases: glycan array binding signal (z-score within array); higher = stronger binding
# Conditions in all cases: glycan notation: IUPAC condensed, linker removed
# [1] = biological target: Gal(b1-4)GlcNAc(b1-6)GalNAc
# Summary of the method: (§1)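 The binding signal is a Z-score computed within each array and averaged over linkers. Arrays of the same protein sequence at different concentrations or buffers were also averaged together. Data originate from 3228 arrays in the Consortium for Functional Glycomics database, kept only where the protein sequence was available.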
# [2] = biological target: Gal(b1-4)GlcNAc(b1-6)[Gal(b1-3)]GalNAc
# Summary of the method: as §1
# Gal3S(b1-3)GalNAc = biological target: Gal3S(b1-3)GalNAc
# Summary of the method: as §1
# Gal3S(b1-3)GlcNAc = biological target: Gal3S(b1-3)GlcNAc
# Summary of the method: as §1
# [3] = biological target: Gal3S(b1-3)[Fuc(a1-4)]GlcNAc
# Summary of the method: as §1
# Gal3S(b1-4)Glc = biological target: Gal3S(b1-4)Glc
# Summary of the method: as §1
# Gal3S(b1-4)Glc6S = biological target: Gal3S(b1-4)Glc6S
# Summary of the method: as §1
# Gal3S(b1-4)GlcNAc = biological target: Gal3S(b1-4)GlcNAc
# Summary of the method: as §1
# Gal3S(b1-4)GlcNAc6S = biological target: Gal3S(b1-4)GlcNAc6S
# Summary of the method: as §1
# [4] = biological target: Gal3S(b1-4)[Fuc(a1-3)]Glc
# Summary of the method: as §1
# Gal3S6S(b1-4)GlcNAc = biological target: Gal3S6S(b1-4)GlcNAc
# Summary of the method: as §1
# Gal3S6S(b1-4)GlcNAc6S = biological target: Gal3S6S(b1-4)GlcNAc6S
# Summary of the method: as §1
# Gal4S(b1-4)GlcNAc = biological target: Gal4S(b1-4)GlcNAc
# Summary of the method: as §1
# Gal4S6S(b1-4)GlcNAc = biological target: Gal4S6S(b1-4)GlcNAc
# Summary of the method: as §1
# Gal6S(b1-4)Glc = biological target: Gal6S(b1-4)Glc
# Summary of the method: as §1
# Gal6S(b1-4)Glc6S = biological target: Gal6S(b1-4)Glc6S
# Summary of the method: as §1
# Gal6S(b1-4)GlcNAc = biological target: Gal6S(b1-4)GlcNAc
# Summary of the method: as §1
# GalNAc(a1-3)Gal = biological target: GalNAc(a1-3)Gal
# Summary of the method: as §1
# GalNAc(a1-3)GalNAc = biological target: GalNAc(a1-3)GalNAc
# Summary of the method: as §1
# [5] = biological target: GalNAc(b1-3)Gal(a1-4)Gal(b1-4)GlcNAc
# Summary of the method: as §1
# GalNAc(b1-3)GalNAc = biological target: GalNAc(b1-3)GalNAc
# Summary of the method: as §1
# GalNAc(b1-4)GlcNAc = biological target: GalNAc(b1-4)GlcNAc
# Summary of the method: as §1
# Glc(a1-4)Glc = biological target: Glc(a1-4)Glc
# Summary of the method: as §1
# Glc(a1-6)Glc(a1-6)Glc = biological target: Glc(a1-6)Glc(a1-6)Glc
# Summary of the method: as §1
# Glc(b1-4)Glc = biological target: Glc(b1-4)Glc
# Summary of the method: as §1
# Glc(b1-6)Glc = biological target: Glc(b1-6)Glc
# Summary of the method: as §1
# GlcA(b1-3)Gal = biological target: GlcA(b1-3)Gal
# Summary of the method: as §1
# GlcA(b1-6)Gal = biological target: GlcA(b1-6)Gal
# Summary of the method: as §1
# [6] = biological target: GlcNAc(a1-3)Gal(b1-4)GlcNAc
# Summary of the method: as §1
# [7] = biological target: GlcNAc(a1-6)Gal(b1-4)GlcNAc
# Summary of the method: as §1
binder,measurement,setting,value
B1,glycan array binding signal (z-score),[1],-0.04
same,glycan array binding signal (z-score),[2],-0.254
same,glycan array binding signal (z-score),Gal3S(b1-3)GalNAc,1.2
same,glycan array binding signal (z-score),Gal3S(b1-3)GlcNAc,0.646
same,glycan array binding signal (z-score),[3],0.569
same,glycan array binding signal (z-score),Gal3S(b1-4)Glc,-0.222
same,glycan array binding signal (z-score),Gal3S(b1-4)Glc6S,0.256
same,glycan array binding signal (z-score),Gal3S(b1-4)GlcNAc,-0.058
same,glycan array binding signal (z-score),Gal3S(b1-4)GlcNAc6S,0.217
same,glycan array binding signal (z-score),[4],0.226
same,glycan array binding signal (z-score),Gal3S6S(b1-4)GlcNAc,0.125
same,glycan array binding signal (z-score),Gal3S6S(b1-4)GlcNAc6S,0.588
same,glycan array binding signal (z-score),Gal4S(b1-4)GlcNAc,1.07
same,glycan array binding signal (z-score),Gal4S6S(b1-4)GlcNAc,0.56
same,glycan array binding signal (z-score),Gal6S(b1-4)Glc,-0.446
same,glycan array binding signal (z-score),Gal6S(b1-4)Glc6S,-0.622
same,glycan array binding signal (z-score),Gal6S(b1-4)GlcNAc,0.624
same,glycan array binding signal (z-score),GalNAc(a1-3)Gal,1.03
same,glycan array binding signal (z-score),GalNAc(a1-3)GalNAc,0.348
same,glycan array binding signal (z-score),[5],-0.265
same,glycan array binding signal (z-score),GalNAc(b1-3)GalNAc,0.055
same,glycan array binding signal (z-score),GalNAc(b1-4)GlcNAc,0.14
same,glycan array binding signal (z-score),Glc(a1-4)Glc,-0.28
same,glycan array binding signal (z-score),Glc(a1-6)Glc(a1-6)Glc,0.658
same,glycan array binding signal (z-score),Glc(b1-4)Glc,-0.813
same,glycan array binding signal (z-score),Glc(b1-6)Glc,0.318
same,glycan array binding signal (z-score),GlcA(b1-3)Gal,-0.476
same,glycan array binding signal (z-score),GlcA(b1-6)Gal,-0.736
same,glycan array binding signal (z-score),[6],-0.757
same,glycan array binding signal (z-score),[7],-0.435

# Retrieved one by one from the entries so far, 2 records:
binder,measurement,setting,value
B1,glycan array binding signal (z-score),GalNAc(a1-3)GalNAc,0.348
same,glycan array binding signal (z-score),[6],-0.757

# — the supplement of paper PMC8728848
